Source: PubChem BioAssay AID248 (DTP/NCI, 2004)
The list does not hold the whole screen: it is rich in T/C values a quarter to a half above the control, in often repeated tests (any T/C) and in doses without a T/C. Further doses and runs are listed elsewhere. T/C is the treated group as % of the vehicle group. Some entries give survivors of the animals treated and no T/C: the source files T/C as zero there, which appears to mark a toxic dose or a test without result, not a measured value. Some survivor counts are full or nearly so, which does not show that the dose was tolerated: survival well below the control is almost never listed, so the zero probably covers shortened survival too. Counts of survivors are from the toxicity check (mostly the fifth day) where no day follows; animals may have died later. Schedules are NCI's codes, taken here to give the interval after Q, in days (D) or hours (H), and the number of doses after X. Some schedule codes hold Z or #, which are not explained here. Where survival is the endpoint, the PubChem record calls one and a half times the control and up active, and a quarter to a half above the control has no call in these data; cut-offs in other NCI protocols can differ. Some T/C values are followed by the survivors on the day toxicity was checked, most often the fifth; without a count, all were alive then.

System: L1210 leukemia ip in BDF1 mice, survival T/C
Experiment: NCI In Vivo Anticancer Drug Screen. Data for tumor model L1210 Leukemia (intraperitoneal) in B6D2F1 (BDF1) mice
Conditions: T/C endpoint: mean survival time, higher T/C = longer survival
[1] = dose: 400.0 mg/kg/injection, schedule: Q04DX003 (ip), vehicle: saline with Tween-80
[2] = dose: 200.0 mg/kg/injection, schedule: Q01DX009 (ip), vehicle: Klucel (hydroxypropylcellulose) (HPC)
[3] = dose: 400.0 mg/kg/injection, schedule: Q01DX009 (ip), vehicle: Klucel (hydroxypropylcellulose) (HPC)
[4] = dose: 300.0 mg/kg/injection, schedule: Q04DX003 (ip), vehicle: saline
[5] = dose: 200.0 mg/kg/injection, schedule: Q01DX009 (ip), vehicle: saline
[6] = dose: 400.0 mg/kg/injection, schedule: Q04DX002 (ip), vehicle: Klucel (hydroxypropylcellulose) (HPC)
[7] = dose: 400.0 mg/kg/injection, schedule: Q01DX001 (ip), vehicle: saline

With `O=NN(CCF)C(=O)NC1CCSc2ccccc21` (stereo not drawn) the T/C (dose: 13.0 mg/kg/injection, schedule: Q01DX001 (ip), vehicle: other) was 141 % of control, the survivor count (dose: 44.0 mg/kg/injection, schedule: Q01DX001 (ip), vehicle: other) was 3 of 10 and the survivor count (dose: 67.0 mg/kg/injection, schedule: Q01DX001 (ip), vehicle: other) was 0 of 10. For the same molecule, the survivor count (dose: 100.0 mg/kg/injection, schedule: Q01DX001 (ip), vehicle: other) was 0 of 10 and the survivor count (dose: 150.0 mg/kg/injection, schedule: Q01DX001 (ip), vehicle: other) was 0 of 10.

`O=C(Nc1ccccc1[N+](=O)[O-])C(=O)Nc1ccccc1[N+](=O)[O-]` was tested, and the survivor count [1] was 6 of 6.

For `Cc1ccc(NC(=O)Oc2c(C)cccc2C)c([N+](=O)[O-])c1`, the survivor count [2] was 3 of 3.

With `CC#CC(=O)SCCNC(=O)CC` the survivor count (dose: 100.0 mg/kg/injection, schedule: Q01DX009 (ip), vehicle: saline with Tween-80) was 2 of 6 and the survivor count [1] was 0 of 6.

With `CC(=O)Nc1ccc(S(N)(=O)=O)cc1` the survivor count [2] was 3 of 3 and the survivor count [3] was 3 of 3.

`Cc1ccc(/C=N/NC(=O)c2ccncc2)cc1` was tested, and the survivor count [2] was 6 of 6 and the survivor count [3] was 6 of 6.

For `CCOP(=O)(NCCc1ccccc1)OCC`, the survivor count (dose: 400.0 mg/kg/injection, schedule: Q01DX001 (ip), vehicle: carboxymethylcellulose (CMC)) was 0 of 4.

`O=C(OC(C(=O)O)C(OC(=O)c1ccccc1)C(=O)O)c1ccccc1` (stereo not drawn) (tested in a mixture with another compound) was tested, and the survivor count (dose: 30.0 mg/kg/injection, schedule: Q01DX001 (ip), vehicle: carboxymethylcellulose (CMC)) was 0 of 6, the survivor count (dose: 60.0 mg/kg/injection, schedule: Q01DX001 (ip), vehicle: carboxymethylcellulose (CMC)) was 0 of 6 and the survivor count (dose: 75.0 mg/kg/injection, schedule: Q01DX001 (ip), vehicle: carboxymethylcellulose (CMC)) was 0 of 6. The survivor count (dose: 150.0 mg/kg/injection, schedule: Q01DX001 (ip), vehicle: carboxymethylcellulose (CMC)) was 0 of 6 and the survivor count (dose: 300.0 mg/kg/injection, schedule: Q01DX001 (ip), vehicle: carboxymethylcellulose (CMC)) was 0 of 6.

For `CNc1ccc(/C=C2\C=Cc3ccccc32)cc1Cl`, the survivor count (dose: 200.0 mg/kg/injection, schedule: Q01DX001 (ip), vehicle: carboxymethylcellulose (CMC)) was 4 of 4.

In the case of `Oc1ccc2c(c1)CCCC2`, the survivor count (dose: 150.0 mg/kg/injection, schedule: Q04DX003 (ip), vehicle: saline) is reported as 0 of 6 and the survivor count [4] is reported as 0 of 6.

In the case of `CSc1nc(Cl)cc(Sc2nc(N)nc3nc[nH]c23)n1`, the survivor count (dose: 200.0 mg/kg/injection, schedule: Q01DX Z (ip), vehicle: methylcellulose (MC)) is reported as 5 of 6.

For `NNc1nnnc2ccccc12`, the survivor count (dose: 40.0 mg/kg/injection, schedule: Q01DX001 (ip), vehicle: Klucel (hydroxypropylcellulose) (HPC)) was 3 of 6, the survivor count (dose: 80.0 mg/kg/injection, schedule: Q01DX001 (ip), vehicle: Klucel (hydroxypropylcellulose) (HPC)) was 0 of 6 and the survivor count (dose: 100.0 mg/kg/injection, schedule: Q01DX001 (ip), vehicle: Klucel (hydroxypropylcellulose) (HPC)) was 0 of 6. For the same molecule, the survivor count (dose: 200.0 mg/kg/injection, schedule: Q01DX001 (ip), vehicle: Klucel (hydroxypropylcellulose) (HPC)) was 0 of 6 and the survivor count (dose: 400.0 mg/kg/injection, schedule: Q01DX001 (ip), vehicle: Klucel (hydroxypropylcellulose) (HPC)) was 1 of 6.

`O=C(Nc1cccc(C2=NCCN2)c1)c1ccc(C(=O)Nc2cccc(C3=NCCN3)c2)cc1` was tested, and the survivor count (dose: 10.0 mg/kg/injection, schedule: Q01DX Z (ip), vehicle: saline) was 1 of 6, the survivor count (dose: 15.0 mg/kg/injection, schedule: Q01DX Z (ip), vehicle: methylcellulose (MC)) was 0 of 6 and the survivor count (dose: 30.0 mg/kg/injection, schedule: Q01DX Z (ip), vehicle: methylcellulose (MC)) was 0 of 6. For the same molecule, the survivor count (dose: 60.0 mg/kg/injection, schedule: Q01DX Z (ip), vehicle: methylcellulose (MC)) was 0 of 6.

With `CCCCCCCCCCCCCCCCCCOc1cccc(C(F)(F)F)c1` the survivor count (dose: 400.0 mg/kg/injection, schedule: Q01DX001 (ip), vehicle: saline with Tween-80) was 6 of 6.

For `C=CCCC[P+](c1ccccc1)(c1ccccc1)c1ccccc1`, the survivor count (dose: 50.0 mg/kg/injection, schedule: Q01DX009 (ip), vehicle: saline with Tween-80) was 2 of 3, the survivor count (dose: 100.0 mg/kg/injection, schedule: Q01DX009 (ip), vehicle: saline) was 0 of 3 and the survivor count [5] was 0 of 3.

With `O=C(NCCCl)Nc1ccc2c3c1CCCC3CC2` (stereo not drawn) the survivor count (dose: 400.0 mg/kg/injection, schedule: Q04DX003 (ip), vehicle: Klucel (hydroxypropylcellulose) (HPC)) was 5 of 6.

`O=C(C[N+]12CN3CN(CN(C3)C1)C2)c1ccc(Cl)cc1` was tested, and the survivor count (dose: 219.0 mg/kg/injection, schedule: Q01DX Z (ip), vehicle: carboxymethylcellulose (CMC)) was 2 of 6.

For `CN(C)CCCC1(O)c2ccccc2Sc2cc(Cl)ccc21` (stereo not drawn), the survivor count (dose: 100.0 mg/kg/injection, schedule: Q04DX002 (ip), vehicle: Klucel (hydroxypropylcellulose) (HPC)) was 3 of 3, the survivor count (dose: 200.0 mg/kg/injection, schedule: Q04DX002 (ip), vehicle: Klucel (hydroxypropylcellulose) (HPC)) was 3 of 3 and the survivor count [6] was 0 of 3.

With `C/C(=N\Nc1nc2ccccc2s1)c1ccc2c(c1)Sc1ccccc1O2` the survivor count [4] was 6 of 6.

`COC(=O)C(CCC(=O)C=[N+]=N)NC(=O)C(Cl)Cl` (stereo not drawn) was tested, and the T/C (dose: 100.0 mg/kg/injection, schedule: Q04DX003 (ip), vehicle: saline with Tween-80) was 142 % of control, the T/C (dose: 175.0 mg/kg/injection, schedule: Q01DX001 (ip), vehicle: saline) was 131 % of control [5 of 6 alive] and the T/C (dose: 177.0 mg/kg/injection, schedule: Q01DX001 (ip), vehicle: saline) was 126 % of control. The T/C (dose: 265.0 mg/kg/injection, schedule: Q01DX001 (ip), vehicle: saline) was 131 % of control, the T/C [7] was 148 % of control and the survivor count [7] was 3 of 6. The survivor count (dose: 600.0 mg/kg/injection, schedule: Q01DX001 (ip), vehicle: saline) was 5 of 6.

For `CCN(CC)CCCNc1nc(C(Cl)(Cl)Cl)nc2ccc(I)cc12`, the survivor count [3] was 5 of 6.

`CCOC(=O)NN=C1CCCC1` was tested, and the survivor count (dose: 200.0 mg/kg/injection, schedule: Q01DX009 (ip), vehicle: saline with Tween-80) was 0 of 3.

For `CCOP(=O)(OCC)Oc1c(Cl)c(Cl)c(O)c(Cl)c1Cl`, the survivor count (dose: 400.0 mg/kg/injection, schedule: Q04DX002 (ip), vehicle: saline with Tween-80) was 0 of 3.

For `C=CCNc1ncnc2c1cnn2C`, the survivor count [5] was 4 of 6.

`N=C(N)SCc1cccc([N+](=O)[O-])c1` was tested, and the survivor count (dose: 100.0 mg/kg/injection, schedule: Q04DX002 (ip), vehicle: saline with Tween-80) was 3 of 3.

For `CC1CCCCN1CC(Cl)(Cl)Cl` (stereo not drawn), the survivor count [7] was 0 of 6.

In the case of `Cc1cc(=O)[nH]c(N/N=C/c2ccccc2O)n1`, the survivor count (dose: 300.0 mg/kg/injection, schedule: Q01DX009 (ip), vehicle: Klucel (hydroxypropylcellulose) (HPC)) is reported as 4 of 6.

For `NOCc1ccsn1`, the survivor count (dose: 400.0 mg/kg/injection, schedule: Q01DX009 (ip), vehicle: sodium bicarbonate) was 0 of 6 and the survivor count (dose: 400.0 mg/kg/injection, schedule: Q04DX003 (ip), vehicle: other) was 6 of 6.

In the case of `O=C(O)c1ccc(P(=O)(O)O)cc1[N+](=O)[O-]`, the survivor count (dose: 200.0 mg/kg/injection, schedule: Q04DX003 (ip), vehicle: saline) is reported as 5 of 6.

With `COC(=O)C1C2CC3c4[nH]c5ccc(OC)cc5c4CCN3CC2CC(OC(=O)c2cc(OC)c(OC)c(OC)c2)C1OC` (stereo not drawn) the survivor count (dose: 182.5 mg/kg/injection, schedule: Q01DX009 (ip), vehicle: Klucel (hydroxypropylcellulose) (HPC)) was 5 of 6 and the survivor count (dose: 365.0 mg/kg/injection, schedule: Q01DX009 (ip), vehicle: Klucel (hydroxypropylcellulose) (HPC)) was 6 of 6.

`CC(=O)c1cccc(NC(=O)Nc2nccs2)c1` was tested, and the survivor count [2] was 3 of 3 and the survivor count [6] was 3 of 3.
